Laboratory results taken from PMC3458939.
Results are given in words; binding and its absence hold for the method and conditions named. Binding seen in cells or lysates may run through a third protein. Some entries that bind do so weakly or less than the wild type.

Biological target: bZIP63-YN / bZIP63-YC (UniProt B9DGI8)
Experiment: split reporter; mYFP BiFC of YN and YC fusions of the same protein in transfected Arabidopsis cell-culture protoplasts, read by flow cytometry (test of detection sensitivity)

B1: bZIP63-YN / bZIP63-YC (protein, UniProt B9DGI8 1-314)
chain: MEKVFSDEEISGNHHWSVNGMTSLNRSASEWAFNRFIQESSAAADDGESTTACGVSVSSPPNVPVDSEEYRAFLKSKLNLACAAVAMKRGTFIKPQDTSGRSDNGGANESEQASLASSKATPMMSSAITSGSELSGDEEEADGETNMNPTNVKRVKRMLSNRESARRSRRRKQAHLSELETQVSQLRVENSKLMKGLTDVTQTFNDASVENRVLKANIETLRAKVKMAEETVKRLTGFNPMFHNMPQIVSTVSLPSETSNSPDTTSSQVTTPEIISSGNKGKALIGCKMNRTASMRRVESLEHLQKRIRSVGDQ
For B1, the binding was “binds”.
